Measured values reported in article PMC10656231.
No constants are given. Whether binding was seen depends on the method and setting. Binding seen in cells or lysates may run through a third protein. Here binding means that the protein was enriched with, or labelled near, the bait; the list need not be complete.

By UniProt entry, the sequences of proteins in these tests, tags left out.
UniProt P35249: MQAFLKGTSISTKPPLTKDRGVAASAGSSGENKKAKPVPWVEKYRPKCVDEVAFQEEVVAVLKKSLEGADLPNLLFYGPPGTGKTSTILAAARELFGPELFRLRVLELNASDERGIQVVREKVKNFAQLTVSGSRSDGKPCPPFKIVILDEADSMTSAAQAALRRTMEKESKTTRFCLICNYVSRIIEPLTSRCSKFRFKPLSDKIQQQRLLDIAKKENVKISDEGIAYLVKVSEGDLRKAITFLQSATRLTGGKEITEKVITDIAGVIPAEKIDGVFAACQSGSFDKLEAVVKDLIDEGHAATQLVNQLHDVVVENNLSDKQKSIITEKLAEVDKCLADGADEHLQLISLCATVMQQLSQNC
UniProt P12004: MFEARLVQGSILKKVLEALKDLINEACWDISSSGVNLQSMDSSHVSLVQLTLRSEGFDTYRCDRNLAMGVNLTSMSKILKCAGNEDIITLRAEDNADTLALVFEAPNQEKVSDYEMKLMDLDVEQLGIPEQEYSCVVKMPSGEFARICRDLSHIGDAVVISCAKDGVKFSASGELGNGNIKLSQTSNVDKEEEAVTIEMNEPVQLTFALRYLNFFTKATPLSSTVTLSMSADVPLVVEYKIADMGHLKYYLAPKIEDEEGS
UniProt P09874: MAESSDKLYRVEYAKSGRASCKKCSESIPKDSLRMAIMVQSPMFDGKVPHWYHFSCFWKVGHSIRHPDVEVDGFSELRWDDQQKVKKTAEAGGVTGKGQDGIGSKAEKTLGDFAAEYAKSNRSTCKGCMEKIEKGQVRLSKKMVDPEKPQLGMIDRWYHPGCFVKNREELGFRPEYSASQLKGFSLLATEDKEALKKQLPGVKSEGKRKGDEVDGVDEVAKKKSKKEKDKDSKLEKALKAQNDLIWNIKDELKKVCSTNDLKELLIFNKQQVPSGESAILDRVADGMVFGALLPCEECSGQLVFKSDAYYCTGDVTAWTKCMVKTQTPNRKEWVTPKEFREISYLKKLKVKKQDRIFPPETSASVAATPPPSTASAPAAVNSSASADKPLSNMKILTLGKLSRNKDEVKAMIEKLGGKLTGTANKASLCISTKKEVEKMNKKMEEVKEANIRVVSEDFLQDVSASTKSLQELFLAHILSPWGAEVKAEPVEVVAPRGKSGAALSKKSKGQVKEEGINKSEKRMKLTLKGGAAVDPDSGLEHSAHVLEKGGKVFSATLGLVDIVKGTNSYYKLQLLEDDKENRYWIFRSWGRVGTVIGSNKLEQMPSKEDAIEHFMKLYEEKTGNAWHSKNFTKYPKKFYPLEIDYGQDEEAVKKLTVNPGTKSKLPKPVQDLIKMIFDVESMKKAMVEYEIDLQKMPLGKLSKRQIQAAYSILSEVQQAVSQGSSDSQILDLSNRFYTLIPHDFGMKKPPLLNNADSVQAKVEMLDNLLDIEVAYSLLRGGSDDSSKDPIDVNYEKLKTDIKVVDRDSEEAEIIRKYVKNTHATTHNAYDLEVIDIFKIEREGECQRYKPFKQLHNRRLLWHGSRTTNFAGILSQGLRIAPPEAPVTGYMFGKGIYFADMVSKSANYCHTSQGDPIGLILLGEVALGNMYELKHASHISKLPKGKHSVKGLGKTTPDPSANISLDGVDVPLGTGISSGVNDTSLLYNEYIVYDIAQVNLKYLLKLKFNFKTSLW
UniProt P40938: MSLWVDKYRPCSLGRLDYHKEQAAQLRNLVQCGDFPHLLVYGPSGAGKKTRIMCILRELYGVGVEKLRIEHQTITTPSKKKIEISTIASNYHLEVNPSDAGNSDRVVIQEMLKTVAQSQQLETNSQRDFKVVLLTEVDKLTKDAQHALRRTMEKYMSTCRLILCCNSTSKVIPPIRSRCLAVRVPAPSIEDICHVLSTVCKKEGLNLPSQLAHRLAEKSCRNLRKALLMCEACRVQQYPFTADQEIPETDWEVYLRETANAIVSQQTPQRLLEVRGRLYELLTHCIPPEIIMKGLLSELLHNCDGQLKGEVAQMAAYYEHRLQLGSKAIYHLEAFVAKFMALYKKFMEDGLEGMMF
UniProt Q96QE3: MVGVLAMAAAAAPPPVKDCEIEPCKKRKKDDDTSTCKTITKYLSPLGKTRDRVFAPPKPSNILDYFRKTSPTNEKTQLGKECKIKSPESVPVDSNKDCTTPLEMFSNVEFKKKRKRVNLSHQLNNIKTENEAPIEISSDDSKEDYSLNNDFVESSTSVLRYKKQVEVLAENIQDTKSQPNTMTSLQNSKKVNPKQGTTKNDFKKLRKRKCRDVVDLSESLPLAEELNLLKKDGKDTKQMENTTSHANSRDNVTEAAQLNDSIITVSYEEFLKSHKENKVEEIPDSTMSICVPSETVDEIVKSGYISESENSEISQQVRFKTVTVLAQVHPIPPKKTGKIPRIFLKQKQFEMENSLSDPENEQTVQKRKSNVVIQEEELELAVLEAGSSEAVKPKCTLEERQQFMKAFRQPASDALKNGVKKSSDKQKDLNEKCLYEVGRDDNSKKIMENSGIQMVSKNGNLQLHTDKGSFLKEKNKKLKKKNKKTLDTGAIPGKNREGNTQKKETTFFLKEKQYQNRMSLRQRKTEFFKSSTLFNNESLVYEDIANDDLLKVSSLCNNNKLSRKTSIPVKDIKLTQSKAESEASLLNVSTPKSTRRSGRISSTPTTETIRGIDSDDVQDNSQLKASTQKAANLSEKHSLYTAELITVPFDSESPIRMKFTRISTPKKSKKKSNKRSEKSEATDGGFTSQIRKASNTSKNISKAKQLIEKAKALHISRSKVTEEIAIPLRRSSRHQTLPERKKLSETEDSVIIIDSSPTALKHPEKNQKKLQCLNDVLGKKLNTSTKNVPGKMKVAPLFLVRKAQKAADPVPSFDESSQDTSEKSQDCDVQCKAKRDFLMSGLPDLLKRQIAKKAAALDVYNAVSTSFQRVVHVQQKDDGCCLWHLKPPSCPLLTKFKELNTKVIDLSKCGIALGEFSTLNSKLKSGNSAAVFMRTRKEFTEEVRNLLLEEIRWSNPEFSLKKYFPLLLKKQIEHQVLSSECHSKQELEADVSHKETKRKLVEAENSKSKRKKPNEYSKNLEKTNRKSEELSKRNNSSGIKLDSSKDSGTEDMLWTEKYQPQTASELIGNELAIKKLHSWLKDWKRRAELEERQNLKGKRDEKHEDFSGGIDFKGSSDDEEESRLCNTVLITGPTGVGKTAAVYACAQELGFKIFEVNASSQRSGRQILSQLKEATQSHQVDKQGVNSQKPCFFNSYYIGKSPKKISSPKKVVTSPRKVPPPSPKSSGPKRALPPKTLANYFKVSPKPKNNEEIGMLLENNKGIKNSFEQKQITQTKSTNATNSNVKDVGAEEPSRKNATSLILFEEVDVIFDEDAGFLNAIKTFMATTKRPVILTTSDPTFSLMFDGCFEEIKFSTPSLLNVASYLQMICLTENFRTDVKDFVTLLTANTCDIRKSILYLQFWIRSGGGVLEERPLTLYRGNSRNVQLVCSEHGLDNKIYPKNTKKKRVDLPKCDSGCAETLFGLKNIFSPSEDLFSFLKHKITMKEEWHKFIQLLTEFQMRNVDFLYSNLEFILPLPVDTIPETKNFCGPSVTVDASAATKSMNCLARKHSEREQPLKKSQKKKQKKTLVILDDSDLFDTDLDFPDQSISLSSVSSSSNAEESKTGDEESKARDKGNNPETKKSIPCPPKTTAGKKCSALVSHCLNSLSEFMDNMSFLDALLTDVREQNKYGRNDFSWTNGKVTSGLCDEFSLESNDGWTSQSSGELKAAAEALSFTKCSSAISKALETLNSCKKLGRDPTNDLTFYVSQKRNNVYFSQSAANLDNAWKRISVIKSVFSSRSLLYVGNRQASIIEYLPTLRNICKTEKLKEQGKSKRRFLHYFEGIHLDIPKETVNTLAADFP

molecular target: T1, HORMAD1 (human (endogenous in A549 and H1395)) (UniProt Q86X24); test: affinity purification with mass spectrometry; endogenous HORMAD1 immunoprecipitated from A549 and H1395 lysates (nondenaturing lysis buffer: 50 mM Hepes pH 7.4, 150 mM NaCl, 1.0% Triton X-100, 0.5% sodium deoxycholate), Protein A/G agarose, overnight at 4 °C; SDS-PAGE, in-gel digestion, nano-HPLC …
T1 sequence: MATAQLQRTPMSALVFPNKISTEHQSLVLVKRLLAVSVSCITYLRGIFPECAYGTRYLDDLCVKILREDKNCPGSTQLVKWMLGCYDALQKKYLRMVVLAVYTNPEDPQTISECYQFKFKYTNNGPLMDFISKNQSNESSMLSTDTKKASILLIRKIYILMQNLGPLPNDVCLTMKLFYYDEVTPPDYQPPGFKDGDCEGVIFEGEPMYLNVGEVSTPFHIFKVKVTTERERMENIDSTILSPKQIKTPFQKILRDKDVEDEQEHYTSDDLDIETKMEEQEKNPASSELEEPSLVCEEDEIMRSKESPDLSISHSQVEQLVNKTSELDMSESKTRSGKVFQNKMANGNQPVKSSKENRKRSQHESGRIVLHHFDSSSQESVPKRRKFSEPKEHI

binding | Substance
binds | RFC4 (from UniProt P35249 1-363)
binds | PCNA (from UniProt P12004 1-261)
binds | PARP1 (from UniProt P09874 1-1014)
binds | RFC3 (from UniProt P40938 1-356)
binds | ATAD5 (from UniProt Q96QE3 1-1844)
